Consider 69 sequences from PubChem BioAssay AID1347426 (Functional Genomics Laboratory (NCATS/FGL), 2020).

In all, about 31,000 sequences went through this assay and about 1,400 (4.5%) were called active.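 The calls were made as follows: active = median seed-adjusted z-score above 1 or below -1; inactive = the rest.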 Some of the results follow.

This assay can be described thus: Novel Modifiers of Survival Motor Neuron (SMN) Protein: Gene Identification via Genome-wide siRNA Screen.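 Also: luminescence tracks full-length SMN protein made from the SMN2 reporter.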 The settings on record: HEK293T SMN2-luciferase reporter, siRNA knockdown, 72 h; actives lie on both sides. The gist of the method:
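Genome-wide siRNA screen (10418 genes, 3 siRNAs each, 1 pmol per well) by reverse transfection in HEK293T cells stably carrying an SMN2-luciferase reporter; luminescence after 72 hours, normalized to negative-control siRNA, log10-transformed, MAD-scored.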
Background: Reporter assays use an easily measured gene product as a stand-in for the process of interest.
As for GACCUCAACCAGAACGUAATT against ATP6V0A2, the median seed-adjusted z-score is inactive: 0.236. With GCCUUAUUCGGAGUACUAUTT against MS4A7, the median seed-adjusted z-score was inactive: 0.0794.

GAAACACGGGAGUACUAGATT against GPR98: the median seed-adjusted z-score is inactive: -0.509. Take GGAUGAGAAUAUGACUCGATT against MSH5: the median seed-adjusted z-score is inactive: -0.444. Turning to GCUCUACAUUGACAGUUGUTT against SEC22B, the median seed-adjusted z-score was inactive: -0.106.

Take GCAAGGUGUUUCCCAUUAATT against TRIB1: the median seed-adjusted z-score was inactive: 0. CAAUCUCCUUAGAAAGCAATT against DOT1L: the median seed-adjusted z-score was inactive: 0.164.

As to CCUGCUUGCUGAUUGCGUATT against SLC43A2, the median seed-adjusted z-score was inactive: -0.202. Take GGUUAUAUCUCAUCUUUGATT against CDC2: the median seed-adjusted z-score was inactive: 0.424.

As to AUCCAUUGAUAAUAAAGCATT against PABPC1, the median seed-adjusted z-score was inactive: -0.126. As for CACCCACUAUUGUUCAAGATT against HCRTR1, the median seed-adjusted z-score was inactive: 0.739.

Take GUAACCAGCUGAAAACGCATT against MYNN: the median seed-adjusted z-score is inactive: 0.0702.

As to GCCGAUGACUUGGUACUGATT against ELF3, the median seed-adjusted z-score is inactive: 0.43. Regarding GGAAGUCCAGUAUGCCUAUTT against BNC1, the median seed-adjusted z-score is inactive: -0.631. Turning to GACUUACCGUUACCACGGATT against PDHA1, the median seed-adjusted z-score is inactive: 0.346.

As to CAAAGGAGGUCAUAAUACATT against ZNF107, the median seed-adjusted z-score is inactive: 0.0761.

Consider GGAACGAAAUUUAAGUUUUTT against PTPN12, for which the median seed-adjusted z-score is inactive: -0.507. Regarding GGACAUAUACUUGCGGGUATT against IARS, the median seed-adjusted z-score was inactive: -0.198. With GGAAUACCUUAUUGAUGUATT against CST8, the median seed-adjusted z-score is inactive: -0.0126. Take GCAUCAUCAAGGCAAUUUATT against CPA1: the median seed-adjusted z-score was inactive: -0.187.

For CAGUUUACCUGUUUUUAAATT against PTBP1, the median seed-adjusted z-score was inactive: 0.578. Regarding UGACCAUGGUAGCACUUUUTT against NXF2, the median seed-adjusted z-score was inactive: -0.0513. On to GGAACACUGUUACUAUAAATT against ADAMDEC1, for which the median seed-adjusted z-score is inactive: 0.0106. GCAAGAAGAGAUUAGCAAATT against EIF2C2: the median seed-adjusted z-score is inactive: -0.183. To CAAGGUAGCUCAGCACUGATT against PEX6 belongs inactive: -0.281.

Consider CCCACUAUGCAAAAUGUAATT against PCMT1, for which the median seed-adjusted z-score is inactive: 0.139.

Take GUAUGUUCAUGAACAUUAUTT against C1GALT1: the median seed-adjusted z-score was inactive: -0.394. Regarding GCAGUGUACCCGUCAUUAUTT against SEMA4B, the median seed-adjusted z-score is inactive: 0.185.

On to GUACUCCUGCUUUACCUAATT against IL13RA1, for which the median seed-adjusted z-score was inactive: 0.269. To CAAAUCCAGUGGUGGGUAATT against S100A6 belongs inactive: -0.264; to CAAGGAUUACAUCACGGAATT against FUT9, inactive: 0.0444; to GUGGUGGGCUUAUCCUCUATT against NRXN3, inactive: 0.897. As for GCACUCUUCUCAUUCACGATT against ATP1B3, the median seed-adjusted z-score was inactive: -0.225.

For the sequence GCACAGUCCUCAGUACUCATT against AMIGO3, the median seed-adjusted z-score was inactive: 0.752.

As for GGAGUGUGCUGAAGACCUATT against GFER, the median seed-adjusted z-score was inactive: 0.402. Consider CUAUGAGACUGACAACUAUTT against FAAH, for which the median seed-adjusted z-score was inactive: 0.373. Regarding AGGCCCUAGUGCUCAGAUATT against MMS19, the median seed-adjusted z-score is inactive: 0.0142. GCACCUUUAGGCGAAGGAATT against SENP6: the median seed-adjusted z-score is active: -1.03.

For the sequence CCGUGAUCGUGAAGCUAGATT against PKD2, the median seed-adjusted z-score was inactive: 0.219. In the case of GCUGCGGUGUGACAUCAGATT against RNH1, the median seed-adjusted z-score was inactive: 0.55. Regarding GCCUUAUAAAGGGAGAAAATT against OXCT1, the median seed-adjusted z-score was inactive: 0.133.

Take GCAUCAACCAUCUCUGAGATT against VILL: the median seed-adjusted z-score is inactive: 0.518. As for GGUUGUUCCUCUAGACAAUTT against PEX1, the median seed-adjusted z-score is inactive: 0.227. With CCAUCAGCAUAGUACUGCATT against ZBTB1, the median seed-adjusted z-score is inactive: 0.3.

Regarding GAAACGGAUUUCUAUGAAATT against MELK, the median seed-adjusted z-score is inactive: -0.195. For the sequence CCUUCCACCGGUUUCCGUUTT against THAP3, the median seed-adjusted z-score is inactive: 0.269. To CUAUGCAAGUGCCUAGCUATT against ICAM4 belongs inactive: -0.338. For the sequence GCUUCGAUGUUCACAAGUATT against HOOK1, the median seed-adjusted z-score was inactive: 0.202.

In the case of GGAUGUAGCUGUCAACUGUTT against HSD17B10, the median seed-adjusted z-score is inactive: -0.355.

As for CACCUCUUCUAUUAAUUCATT against PCDHGA11, the median seed-adjusted z-score was inactive: 0.0518. For GUGUAUGAACUGACCAAGATT against SMAD9, the median seed-adjusted z-score was inactive: -0.492.

Consider GCAAGAUGCAUGCUCAUGATT against ZNF142, for which the median seed-adjusted z-score is inactive: 0.111. For the sequence GGAAGCUCACUGCCAUGUCTT against CBX2, the median seed-adjusted z-score was inactive: -0.215. As to AUUUAGACAUUGGAACUAATT against PCDHB2, the median seed-adjusted z-score is inactive: 0. Regarding CGAGAUCUCAAGUCUAACATT against ARAF, the median seed-adjusted z-score was inactive: 0.535.

On to GUCCGGCUCUUUCCACUAATT against EIF2B1, for which the median seed-adjusted z-score is inactive: 0.206. For the sequence GGAUUGAUCUGACAUCAAATT against EPYC, the median seed-adjusted z-score was inactive: 0.00264. Turning to CCCAGGUUCUUGAUCGGAUTT against CHRNA5, the median seed-adjusted z-score was inactive: 0. As to GGUACCUUUUUGAACUGUUTT against CLCN3, the median seed-adjusted z-score was inactive: -0.0801. Take CCAAAUGAAUCAAGCAGAATT against LCORL: the median seed-adjusted z-score is inactive: -0.0458. Take GCAUUGUGAUCGAGGACAATT against HCN2: the median seed-adjusted z-score is inactive: 0.

Regarding CGCCUUUCAUUUUUGCUGATT against TGM1, the median seed-adjusted z-score was inactive: -0.286. For the sequence AGAAAUACCAGUGCAAAAATT against SNAI2, the median seed-adjusted z-score was inactive: 0.

For CCCAAUCAGUAAGAACCAATT against CEACAM1, the median seed-adjusted z-score is inactive: -0.211. Consider CAGUAACAAUGGAAAAAGUTT against ZNF302, for which the median seed-adjusted z-score was inactive: 0.498. For GGAUGGGCAUGAAAGUCCATT against COPG2, the median seed-adjusted z-score was inactive: -0.564.

Take GCGACUAUUUUGAAUACCATT against TLK1: the median seed-adjusted z-score is inactive: -0.0133. In the case of GGAUGUUACCAGGACAUUUTT against TNFAIP3, the median seed-adjusted z-score was inactive: 0.11. Regarding CGAAUGACAAGUGAUCUAATT against MDH1B, the median seed-adjusted z-score is active: -1.13.
